Measured values from PMC9217715.
These are yes or no findings as the source states them, for the method shown. In cells and extracts the contact can be indirect. Some results given as binding are weak or reduced against the parent protein; the word gives no strength.

Protein sequences, listed by entry. Tags and fused reporters are not part of them.
UniProt Q15796: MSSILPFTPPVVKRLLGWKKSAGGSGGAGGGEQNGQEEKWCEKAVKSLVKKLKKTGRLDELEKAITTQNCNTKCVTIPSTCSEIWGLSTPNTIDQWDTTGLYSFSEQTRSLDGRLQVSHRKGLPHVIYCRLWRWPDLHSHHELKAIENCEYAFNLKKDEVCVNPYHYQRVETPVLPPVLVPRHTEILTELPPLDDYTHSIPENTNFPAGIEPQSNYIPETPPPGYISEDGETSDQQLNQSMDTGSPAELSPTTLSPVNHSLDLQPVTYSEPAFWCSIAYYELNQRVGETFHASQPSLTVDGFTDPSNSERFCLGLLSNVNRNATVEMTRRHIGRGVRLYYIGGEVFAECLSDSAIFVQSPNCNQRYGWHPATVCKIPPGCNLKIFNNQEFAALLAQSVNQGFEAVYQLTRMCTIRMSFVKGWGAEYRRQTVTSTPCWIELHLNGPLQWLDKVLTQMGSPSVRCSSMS

Molecular target: T1, TGFBR1 (human (endogenous in HCT-116 and HT-29)) (UniProt P36897)
T1 sequence: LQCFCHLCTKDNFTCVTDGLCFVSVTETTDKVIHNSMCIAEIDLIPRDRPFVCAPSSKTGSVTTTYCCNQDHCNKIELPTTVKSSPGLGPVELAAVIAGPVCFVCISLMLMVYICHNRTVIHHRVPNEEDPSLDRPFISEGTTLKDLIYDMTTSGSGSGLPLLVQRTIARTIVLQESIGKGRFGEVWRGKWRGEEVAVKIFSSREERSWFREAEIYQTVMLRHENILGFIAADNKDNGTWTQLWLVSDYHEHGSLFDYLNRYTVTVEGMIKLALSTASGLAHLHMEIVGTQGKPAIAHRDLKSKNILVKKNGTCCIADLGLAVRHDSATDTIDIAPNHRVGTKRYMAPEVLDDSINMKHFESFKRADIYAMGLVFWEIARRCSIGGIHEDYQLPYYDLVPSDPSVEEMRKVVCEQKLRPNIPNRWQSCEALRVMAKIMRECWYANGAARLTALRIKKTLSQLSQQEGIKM
Experiment: co-IP; lysates (pre-cooled RIPA buffer with phosphatase inhibitors) of HCT-116 and HT-29 cells with or without ALG10 knockdown; Protein A agarose beads; precipitating antibody not stated

binding: binds
Substance: p-smad2 (from UniProt Q15796 1-467)
